# Laboratory results taken from the supplement of paper PMC10849652.
# Sequences of proteins named here, by UniProt entry; tags and fusion partners are left off. A change or cut given only in a name is not applied to a line headed by its entry.
# UniProt Q86XA9: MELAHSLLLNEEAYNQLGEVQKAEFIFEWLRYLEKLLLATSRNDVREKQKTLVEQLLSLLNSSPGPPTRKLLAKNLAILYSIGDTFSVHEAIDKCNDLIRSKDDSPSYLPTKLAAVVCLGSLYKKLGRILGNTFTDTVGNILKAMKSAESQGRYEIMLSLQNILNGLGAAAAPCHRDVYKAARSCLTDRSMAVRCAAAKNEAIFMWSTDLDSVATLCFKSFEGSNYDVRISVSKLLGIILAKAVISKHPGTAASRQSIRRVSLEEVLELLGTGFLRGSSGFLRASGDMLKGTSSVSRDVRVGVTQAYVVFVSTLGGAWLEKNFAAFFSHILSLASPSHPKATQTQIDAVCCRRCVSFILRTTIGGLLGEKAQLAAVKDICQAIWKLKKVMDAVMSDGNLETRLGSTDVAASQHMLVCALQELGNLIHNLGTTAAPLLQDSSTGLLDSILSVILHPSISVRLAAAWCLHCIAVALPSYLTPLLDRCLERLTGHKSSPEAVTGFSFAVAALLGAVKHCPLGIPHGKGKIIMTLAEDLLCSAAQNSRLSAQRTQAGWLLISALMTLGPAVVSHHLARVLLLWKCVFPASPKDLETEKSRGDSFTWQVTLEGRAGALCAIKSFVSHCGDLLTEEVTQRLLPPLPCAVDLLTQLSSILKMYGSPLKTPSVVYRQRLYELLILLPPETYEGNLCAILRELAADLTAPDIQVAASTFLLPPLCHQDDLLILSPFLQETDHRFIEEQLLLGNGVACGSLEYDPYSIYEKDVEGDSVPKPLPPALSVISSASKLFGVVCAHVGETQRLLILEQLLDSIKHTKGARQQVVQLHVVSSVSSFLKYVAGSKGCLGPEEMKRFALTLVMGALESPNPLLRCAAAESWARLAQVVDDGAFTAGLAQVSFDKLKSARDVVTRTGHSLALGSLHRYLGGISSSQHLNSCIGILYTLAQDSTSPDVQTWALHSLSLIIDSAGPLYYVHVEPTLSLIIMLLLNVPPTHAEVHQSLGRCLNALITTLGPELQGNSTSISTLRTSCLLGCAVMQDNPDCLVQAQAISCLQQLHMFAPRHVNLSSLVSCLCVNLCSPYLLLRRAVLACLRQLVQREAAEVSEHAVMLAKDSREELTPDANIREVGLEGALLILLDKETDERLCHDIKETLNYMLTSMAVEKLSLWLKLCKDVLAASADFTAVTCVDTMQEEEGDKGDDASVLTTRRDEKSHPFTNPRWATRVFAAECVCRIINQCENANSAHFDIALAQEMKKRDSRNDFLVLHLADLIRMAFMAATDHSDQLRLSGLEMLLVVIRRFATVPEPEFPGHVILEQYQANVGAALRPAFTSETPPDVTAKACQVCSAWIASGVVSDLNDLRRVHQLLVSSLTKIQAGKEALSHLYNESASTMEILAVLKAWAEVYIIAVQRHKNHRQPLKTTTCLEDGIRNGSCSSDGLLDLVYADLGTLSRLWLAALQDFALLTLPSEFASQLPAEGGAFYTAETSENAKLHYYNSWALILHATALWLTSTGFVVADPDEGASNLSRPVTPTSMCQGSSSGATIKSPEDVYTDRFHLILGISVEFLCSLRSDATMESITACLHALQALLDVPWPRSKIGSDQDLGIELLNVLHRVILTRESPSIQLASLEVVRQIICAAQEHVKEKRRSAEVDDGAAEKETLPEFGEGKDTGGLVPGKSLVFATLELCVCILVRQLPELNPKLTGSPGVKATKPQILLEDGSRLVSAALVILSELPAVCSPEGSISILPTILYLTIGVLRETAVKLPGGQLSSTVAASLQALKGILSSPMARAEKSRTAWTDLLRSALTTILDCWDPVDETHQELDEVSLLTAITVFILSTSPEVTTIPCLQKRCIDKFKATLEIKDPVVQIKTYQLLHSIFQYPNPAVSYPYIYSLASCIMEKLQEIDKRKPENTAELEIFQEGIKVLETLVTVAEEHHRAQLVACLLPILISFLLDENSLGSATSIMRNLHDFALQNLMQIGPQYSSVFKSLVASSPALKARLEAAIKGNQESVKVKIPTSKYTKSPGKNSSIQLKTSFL
# UniProt Q92769, whole entry, looked up: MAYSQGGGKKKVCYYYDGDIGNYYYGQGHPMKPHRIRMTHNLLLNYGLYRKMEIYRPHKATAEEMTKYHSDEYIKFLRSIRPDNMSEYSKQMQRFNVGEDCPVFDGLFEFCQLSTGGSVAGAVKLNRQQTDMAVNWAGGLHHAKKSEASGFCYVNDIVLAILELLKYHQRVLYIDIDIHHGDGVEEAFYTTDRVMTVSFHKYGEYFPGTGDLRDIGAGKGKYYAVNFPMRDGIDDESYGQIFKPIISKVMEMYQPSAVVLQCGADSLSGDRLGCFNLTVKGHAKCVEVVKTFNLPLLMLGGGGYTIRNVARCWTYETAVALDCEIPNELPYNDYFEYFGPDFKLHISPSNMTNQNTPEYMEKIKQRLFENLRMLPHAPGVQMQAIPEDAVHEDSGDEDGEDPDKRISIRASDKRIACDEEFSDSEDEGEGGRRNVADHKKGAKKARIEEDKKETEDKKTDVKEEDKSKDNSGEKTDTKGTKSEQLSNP
# UniProt Q9Y2Q3: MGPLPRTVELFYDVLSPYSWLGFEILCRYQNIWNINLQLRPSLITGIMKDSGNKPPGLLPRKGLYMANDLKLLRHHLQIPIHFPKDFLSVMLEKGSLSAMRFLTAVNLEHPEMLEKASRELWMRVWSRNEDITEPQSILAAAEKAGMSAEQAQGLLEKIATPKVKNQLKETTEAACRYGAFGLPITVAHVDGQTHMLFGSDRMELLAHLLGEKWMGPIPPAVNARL
# UniProt P09105: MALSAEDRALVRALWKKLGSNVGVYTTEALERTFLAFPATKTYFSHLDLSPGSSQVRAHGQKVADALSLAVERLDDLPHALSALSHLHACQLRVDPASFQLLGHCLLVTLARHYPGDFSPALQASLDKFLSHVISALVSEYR
# UniProt P21266: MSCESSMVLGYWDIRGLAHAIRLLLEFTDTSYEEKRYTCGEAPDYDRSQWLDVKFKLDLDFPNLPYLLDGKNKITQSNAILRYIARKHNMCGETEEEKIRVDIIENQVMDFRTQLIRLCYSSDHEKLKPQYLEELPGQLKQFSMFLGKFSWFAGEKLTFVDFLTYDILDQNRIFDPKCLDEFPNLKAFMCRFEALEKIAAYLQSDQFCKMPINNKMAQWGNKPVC
# UniProt O43824: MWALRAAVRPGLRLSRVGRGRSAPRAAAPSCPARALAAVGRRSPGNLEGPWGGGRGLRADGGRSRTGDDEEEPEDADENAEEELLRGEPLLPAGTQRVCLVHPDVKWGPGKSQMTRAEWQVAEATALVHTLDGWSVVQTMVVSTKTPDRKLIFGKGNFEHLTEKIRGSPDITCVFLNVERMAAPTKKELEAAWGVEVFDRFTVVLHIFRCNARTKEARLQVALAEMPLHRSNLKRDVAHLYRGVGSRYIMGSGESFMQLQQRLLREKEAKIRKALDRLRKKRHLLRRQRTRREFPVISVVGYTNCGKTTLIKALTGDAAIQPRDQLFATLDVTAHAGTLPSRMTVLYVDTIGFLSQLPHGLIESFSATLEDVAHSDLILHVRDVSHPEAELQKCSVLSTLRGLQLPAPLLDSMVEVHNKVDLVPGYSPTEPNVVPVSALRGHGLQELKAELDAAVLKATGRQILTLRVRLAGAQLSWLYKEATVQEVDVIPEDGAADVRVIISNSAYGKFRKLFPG
# UniProt Q9H0R4: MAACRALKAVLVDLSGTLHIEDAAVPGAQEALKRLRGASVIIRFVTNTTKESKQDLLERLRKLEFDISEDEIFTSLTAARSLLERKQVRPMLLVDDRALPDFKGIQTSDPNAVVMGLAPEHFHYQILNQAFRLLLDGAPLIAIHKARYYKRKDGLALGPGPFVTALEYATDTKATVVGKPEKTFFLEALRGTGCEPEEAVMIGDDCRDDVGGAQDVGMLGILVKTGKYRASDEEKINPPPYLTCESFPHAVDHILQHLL
# UniProt Q9NRV9: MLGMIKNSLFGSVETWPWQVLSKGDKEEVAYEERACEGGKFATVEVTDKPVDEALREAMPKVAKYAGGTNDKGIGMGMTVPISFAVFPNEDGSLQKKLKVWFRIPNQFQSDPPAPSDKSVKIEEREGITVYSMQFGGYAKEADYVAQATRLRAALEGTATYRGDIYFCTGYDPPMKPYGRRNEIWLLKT
# UniProt Q9P2D3: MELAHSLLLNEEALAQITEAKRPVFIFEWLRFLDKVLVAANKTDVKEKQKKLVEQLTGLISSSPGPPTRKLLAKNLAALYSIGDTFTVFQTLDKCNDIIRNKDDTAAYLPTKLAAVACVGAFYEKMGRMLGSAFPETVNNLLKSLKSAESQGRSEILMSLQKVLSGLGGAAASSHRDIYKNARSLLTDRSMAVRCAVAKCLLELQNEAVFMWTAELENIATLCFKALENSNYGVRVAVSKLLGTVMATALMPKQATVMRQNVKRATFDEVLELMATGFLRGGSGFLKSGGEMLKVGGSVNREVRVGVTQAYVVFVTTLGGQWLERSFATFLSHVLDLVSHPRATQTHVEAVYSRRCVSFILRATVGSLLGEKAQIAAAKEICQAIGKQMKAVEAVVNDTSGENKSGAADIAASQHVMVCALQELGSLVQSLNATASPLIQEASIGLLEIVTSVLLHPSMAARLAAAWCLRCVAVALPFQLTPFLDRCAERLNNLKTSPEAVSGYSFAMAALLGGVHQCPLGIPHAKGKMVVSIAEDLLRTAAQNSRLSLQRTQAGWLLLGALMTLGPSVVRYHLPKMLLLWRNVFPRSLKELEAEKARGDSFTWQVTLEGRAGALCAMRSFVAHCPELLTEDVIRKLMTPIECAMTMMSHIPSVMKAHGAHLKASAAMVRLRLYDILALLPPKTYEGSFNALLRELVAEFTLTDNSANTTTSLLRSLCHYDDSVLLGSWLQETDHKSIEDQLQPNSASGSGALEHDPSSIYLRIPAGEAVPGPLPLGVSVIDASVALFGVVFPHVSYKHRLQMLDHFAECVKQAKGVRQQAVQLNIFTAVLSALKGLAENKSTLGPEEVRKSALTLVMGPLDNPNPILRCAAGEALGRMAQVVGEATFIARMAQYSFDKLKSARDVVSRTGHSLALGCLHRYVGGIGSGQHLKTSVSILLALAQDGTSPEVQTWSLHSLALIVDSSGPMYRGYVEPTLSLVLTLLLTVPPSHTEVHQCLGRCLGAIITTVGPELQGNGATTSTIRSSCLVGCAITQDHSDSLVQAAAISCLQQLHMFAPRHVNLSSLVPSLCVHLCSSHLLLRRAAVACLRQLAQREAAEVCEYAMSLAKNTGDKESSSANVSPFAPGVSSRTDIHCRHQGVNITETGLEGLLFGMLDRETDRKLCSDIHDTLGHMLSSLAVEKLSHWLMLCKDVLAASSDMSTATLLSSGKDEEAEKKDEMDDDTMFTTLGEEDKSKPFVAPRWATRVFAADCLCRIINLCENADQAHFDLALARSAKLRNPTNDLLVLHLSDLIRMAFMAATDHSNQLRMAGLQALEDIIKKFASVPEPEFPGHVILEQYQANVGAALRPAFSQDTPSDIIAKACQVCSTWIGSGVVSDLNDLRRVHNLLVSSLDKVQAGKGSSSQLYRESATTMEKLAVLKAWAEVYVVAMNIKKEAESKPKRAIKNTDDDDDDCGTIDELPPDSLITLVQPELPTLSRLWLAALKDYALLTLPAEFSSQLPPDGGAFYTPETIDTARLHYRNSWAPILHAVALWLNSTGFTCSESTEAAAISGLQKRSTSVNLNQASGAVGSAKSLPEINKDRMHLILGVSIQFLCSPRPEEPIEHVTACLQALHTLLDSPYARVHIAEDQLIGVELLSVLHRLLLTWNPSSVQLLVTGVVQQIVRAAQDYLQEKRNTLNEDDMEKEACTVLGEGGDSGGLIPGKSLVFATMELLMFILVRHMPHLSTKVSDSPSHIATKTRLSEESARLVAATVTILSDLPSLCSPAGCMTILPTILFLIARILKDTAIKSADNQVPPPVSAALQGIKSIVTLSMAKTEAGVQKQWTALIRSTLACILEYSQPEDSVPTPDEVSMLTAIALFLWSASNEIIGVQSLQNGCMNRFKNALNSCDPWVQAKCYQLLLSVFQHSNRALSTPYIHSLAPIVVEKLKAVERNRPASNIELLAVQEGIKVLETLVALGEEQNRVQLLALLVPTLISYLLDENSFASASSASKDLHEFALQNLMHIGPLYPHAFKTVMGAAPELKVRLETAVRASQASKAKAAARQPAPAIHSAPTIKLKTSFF
# The other results are listed elsewhere or left out.
# Experiments:
# Experiment in all cases: log2 fold change, soluble protein after heating vs DMSO (PISA); higher = thermal stabilisation; K562 cells, 10 uM, 30 min; active = over 0.2 and 3.5 SD of the protein, either way, in both replicates (recomputed)
# [1] = compound: C#Cc1cccc(Nc2ncnc3cc(OCCOC)c(OCCOC)cc23)c1 [erlotinib]
# Method in brief: (§1)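 K562 cells at 2×10^6 cells/mL were given 10 μM compound for 30 min. Aliquots then went through 3 min of heating across 48°C-58°C, were pooled, and were extracted in PBS with 0.5% NP-40 at 4°C, and the supernatant after 21,000xg for 90 min was quantified by TMTpro 16plex LC-MS/MS with channel sums equalised. Thermal stability relative to control samples, from duplicates, is given as log2 fold change.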
# [2] = compound: C/C(=N\NC(=O)C1=CC(=CC=C1)S(=O)(=O)N2CCOCC2)/C3=C(C=CC(=C3)Cl)O
# Method in brief: as §1
# [3] = compound: C1=CC(=C(C=C1Cl)C2=NC3=NC=CN=C3C(=N2)NC4=CC=NC=C4)F
# Method in brief: as §1
# [4] = compound: C1=CC(=CC=C1C2=NC3=C(N2)C=C(C=C3)C(=O)N)OC4=CC=C(C=C4)Cl
# Method in brief: as §1
# [5] = compound: C1=CC2=C(C=CC(=C2)/C=C\3/C(=O)NC(=NCC4=CC=CS4)S3)N=C1
# Method in brief: as §1
# [6] = compound: C1=CC2=NC=CN=C2C=C1/C=C/3\C(=O)NC(=O)S3
# Method in brief: as §1
# [7] = compound: C1=CC=C(C=C1)C2=NC(=C(N2)C3=CC=NC=C3)C4=CC(=C(C=C4)Cl)O
# Method in brief: as §1
# [8] = compound: C1=CC=C2C(=C1)C3=NNC4=CC=CC(=C43)C2=O
# Method in brief: as §1
# [9] = compound: C1CCN(C1)C(=O)NC2=CC=CC(=C2)NC3=NC=C(C(=N3)NCCC4=CN=CN4)Br
# Method in brief: as §1
# [10] = compound: C1CN(CCC1(CC2=CC=C(C=C2)Cl)N)C3=NC=NC4=C3C=CN4
# Method in brief: as §1
Target,log2 fold change [1],log2 fold change [2],log2 fold change [3],log2 fold change [4],log2 fold change [5],log2 fold change [6],log2 fold change [7],log2 fold change [8],log2 fold change [9],log2 fold change [10]
HCFC1 isoform 4 (UniProt P51610),inactive: -0.011,inactive: 0.014,inactive: 0.023,inactive: -0.018,inactive: 0.005,inactive: 0.009,inactive: 0.014,inactive: -0.009,inactive: -0.029,inactive: -0.067
GSS (UniProt P48637),inactive: 0.044,inactive: -0.001,inactive: 0.018,inactive: -0.01,inactive: 0.019,inactive: 0.002,inactive: -0.025,inactive: -0.023,inactive: 0.025,inactive: 0.03
H2AFX (UniProt P16104),inactive: 0.05,inactive: -0.243,inactive: -0.54,inactive: 0.072,inactive: 0.014,inactive: 0.274,inactive: -0.087,inactive: -0.049,inactive: 0.231,inactive: -0.319
HEATR5A (UniProt Q86XA9),inactive: 0.13,inactive: -0.01,inactive: -0.026,inactive: -0.055,inactive: 0.03,inactive: 0.002,inactive: -0.008,inactive: -0.06,inactive: 0.319,inactive: -0.01
HDAC2 (UniProt Q92769),active: 0.757,inactive: 0.013,inactive: -0.02,inactive: -0.012,inactive: 0.006,inactive: 0.002,inactive: -0.011,inactive: -0.011,inactive: -0.025,inactive: 0.023
GSTK1 (UniProt Q9Y2Q3),inactive: -0.041,inactive: 0.01,inactive: 0.128,inactive: 0.025,inactive: 0.061,inactive: 0.021,inactive: 0.037,inactive: 0.065,inactive: -0.023,inactive: 0.034
HBQ1 (UniProt P09105),inactive: -0.007,inactive: -0.021,active: 0.33,inactive: 0.03,inactive: 0.059,inactive: 0.011,inactive: 0.051,inactive: -0.021,inactive: -0.093,inactive: 0.026
GSTM3 (UniProt P21266),inactive: 0.029,inactive: 0.027,inactive: 0.072,inactive: -0.029,inactive: 0.087,inactive: 0.112,,inactive: 0.114,inactive: -0.046,inactive: 0.084
GTPBP6 (UniProt O43824),inactive: -0.091,inactive: -0.017,inactive: -0.137,inactive: 0.01,inactive: 0.041,inactive: 0.066,inactive: -0.036,inactive: -0.05,inactive: 0.06,inactive: 0.027
HDHD2 (UniProt Q9H0R4),inactive: 0.029,inactive: 0,inactive: 0.133,inactive: 0.009,inactive: 0.013,inactive: 0.046,inactive: -0.015,inactive: -0.018,inactive: -0.009,inactive: 0.037
HEBP1 (UniProt Q9NRV9),inactive: 0.05,inactive: 0.049,inactive: 0.037,inactive: -0.03,inactive: -0.004,inactive: -0.096,inactive: -0.012,inactive: 0.352,inactive: 0.041,inactive: 0.017
GTPBP1 (UniProt O00178),inactive: 0.002,inactive: 0.025,inactive: -0.04,inactive: -0.032,inactive: -0.018,inactive: -0.019,inactive: 0.042,inactive: 0.017,inactive: 0,inactive: 0.016
HDAC1 (UniProt Q13547),active: 1.14,inactive: 0.015,inactive: 0.011,inactive: -0.01,inactive: 0.16,inactive: 0.004,inactive: 0.021,inactive: -0.055,inactive: -0.004,inactive: -0.018
HEATR5B (UniProt Q9P2D3),inactive: -0.009,inactive: 0.059,inactive: -0.128,inactive: 0.025,inactive: -0.067,inactive: 0.004,inactive: 0.007,inactive: 0.05,inactive: -0.026,inactive: 0.043

# Reformatted with tabs: part of the list above.
Target	log2 fold change [1]	log2 fold change [2]	log2 fold change [3]	log2 fold change [4]	log2 fold change [5]	log2 fold change [6]	log2 fold change [7]	log2 fold change [8]	log2 fold change [9]	log2 fold change [10]
HBQ1 (UniProt P09105)	inactive: -0.007	inactive: -0.021	active: 0.33	inactive: 0.03	inactive: 0.059	inactive: 0.011	inactive: 0.051	inactive: -0.021	inactive: -0.093	inactive: 0.026
GSTM3 (UniProt P21266)	inactive: 0.029	inactive: 0.027	inactive: 0.072	inactive: -0.029	inactive: 0.087	inactive: 0.112		inactive: 0.114	inactive: -0.046	inactive: 0.084
HEBP1 (UniProt Q9NRV9)	inactive: 0.05	inactive: 0.049	inactive: 0.037	inactive: -0.03	inactive: -0.004	inactive: -0.096	inactive: -0.012	inactive: 0.352	inactive: 0.041	inactive: 0.017
